# The supplement of paper PMC11006884
# Sequences of proteins named here, by UniProt entry; tags and fusion partners are left off. A change or cut given only in a name is not applied to a line headed by its entry.
# UniProt O15304: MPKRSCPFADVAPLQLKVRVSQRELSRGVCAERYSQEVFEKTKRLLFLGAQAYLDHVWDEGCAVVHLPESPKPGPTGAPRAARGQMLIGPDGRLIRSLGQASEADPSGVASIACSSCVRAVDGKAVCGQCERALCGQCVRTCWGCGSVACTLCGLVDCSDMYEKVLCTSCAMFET
# UniProt O00571: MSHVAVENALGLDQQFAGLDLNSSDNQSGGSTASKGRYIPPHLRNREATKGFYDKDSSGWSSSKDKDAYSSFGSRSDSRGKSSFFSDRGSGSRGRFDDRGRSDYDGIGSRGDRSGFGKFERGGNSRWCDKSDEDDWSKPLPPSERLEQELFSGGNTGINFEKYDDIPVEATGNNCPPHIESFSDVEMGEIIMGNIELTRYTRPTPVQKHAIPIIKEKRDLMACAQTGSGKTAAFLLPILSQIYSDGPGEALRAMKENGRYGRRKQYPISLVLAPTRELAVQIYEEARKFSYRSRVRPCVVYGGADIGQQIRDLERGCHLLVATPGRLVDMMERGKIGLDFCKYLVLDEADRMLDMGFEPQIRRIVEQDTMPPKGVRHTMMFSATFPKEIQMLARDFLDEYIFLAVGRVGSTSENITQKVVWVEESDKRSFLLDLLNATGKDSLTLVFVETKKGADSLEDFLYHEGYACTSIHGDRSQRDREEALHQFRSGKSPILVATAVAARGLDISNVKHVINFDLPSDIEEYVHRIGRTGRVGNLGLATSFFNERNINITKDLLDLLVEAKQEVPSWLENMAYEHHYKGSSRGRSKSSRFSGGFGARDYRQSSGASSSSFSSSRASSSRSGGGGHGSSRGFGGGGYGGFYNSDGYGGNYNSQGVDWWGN
# UniProt O14497, whole entry, looked up: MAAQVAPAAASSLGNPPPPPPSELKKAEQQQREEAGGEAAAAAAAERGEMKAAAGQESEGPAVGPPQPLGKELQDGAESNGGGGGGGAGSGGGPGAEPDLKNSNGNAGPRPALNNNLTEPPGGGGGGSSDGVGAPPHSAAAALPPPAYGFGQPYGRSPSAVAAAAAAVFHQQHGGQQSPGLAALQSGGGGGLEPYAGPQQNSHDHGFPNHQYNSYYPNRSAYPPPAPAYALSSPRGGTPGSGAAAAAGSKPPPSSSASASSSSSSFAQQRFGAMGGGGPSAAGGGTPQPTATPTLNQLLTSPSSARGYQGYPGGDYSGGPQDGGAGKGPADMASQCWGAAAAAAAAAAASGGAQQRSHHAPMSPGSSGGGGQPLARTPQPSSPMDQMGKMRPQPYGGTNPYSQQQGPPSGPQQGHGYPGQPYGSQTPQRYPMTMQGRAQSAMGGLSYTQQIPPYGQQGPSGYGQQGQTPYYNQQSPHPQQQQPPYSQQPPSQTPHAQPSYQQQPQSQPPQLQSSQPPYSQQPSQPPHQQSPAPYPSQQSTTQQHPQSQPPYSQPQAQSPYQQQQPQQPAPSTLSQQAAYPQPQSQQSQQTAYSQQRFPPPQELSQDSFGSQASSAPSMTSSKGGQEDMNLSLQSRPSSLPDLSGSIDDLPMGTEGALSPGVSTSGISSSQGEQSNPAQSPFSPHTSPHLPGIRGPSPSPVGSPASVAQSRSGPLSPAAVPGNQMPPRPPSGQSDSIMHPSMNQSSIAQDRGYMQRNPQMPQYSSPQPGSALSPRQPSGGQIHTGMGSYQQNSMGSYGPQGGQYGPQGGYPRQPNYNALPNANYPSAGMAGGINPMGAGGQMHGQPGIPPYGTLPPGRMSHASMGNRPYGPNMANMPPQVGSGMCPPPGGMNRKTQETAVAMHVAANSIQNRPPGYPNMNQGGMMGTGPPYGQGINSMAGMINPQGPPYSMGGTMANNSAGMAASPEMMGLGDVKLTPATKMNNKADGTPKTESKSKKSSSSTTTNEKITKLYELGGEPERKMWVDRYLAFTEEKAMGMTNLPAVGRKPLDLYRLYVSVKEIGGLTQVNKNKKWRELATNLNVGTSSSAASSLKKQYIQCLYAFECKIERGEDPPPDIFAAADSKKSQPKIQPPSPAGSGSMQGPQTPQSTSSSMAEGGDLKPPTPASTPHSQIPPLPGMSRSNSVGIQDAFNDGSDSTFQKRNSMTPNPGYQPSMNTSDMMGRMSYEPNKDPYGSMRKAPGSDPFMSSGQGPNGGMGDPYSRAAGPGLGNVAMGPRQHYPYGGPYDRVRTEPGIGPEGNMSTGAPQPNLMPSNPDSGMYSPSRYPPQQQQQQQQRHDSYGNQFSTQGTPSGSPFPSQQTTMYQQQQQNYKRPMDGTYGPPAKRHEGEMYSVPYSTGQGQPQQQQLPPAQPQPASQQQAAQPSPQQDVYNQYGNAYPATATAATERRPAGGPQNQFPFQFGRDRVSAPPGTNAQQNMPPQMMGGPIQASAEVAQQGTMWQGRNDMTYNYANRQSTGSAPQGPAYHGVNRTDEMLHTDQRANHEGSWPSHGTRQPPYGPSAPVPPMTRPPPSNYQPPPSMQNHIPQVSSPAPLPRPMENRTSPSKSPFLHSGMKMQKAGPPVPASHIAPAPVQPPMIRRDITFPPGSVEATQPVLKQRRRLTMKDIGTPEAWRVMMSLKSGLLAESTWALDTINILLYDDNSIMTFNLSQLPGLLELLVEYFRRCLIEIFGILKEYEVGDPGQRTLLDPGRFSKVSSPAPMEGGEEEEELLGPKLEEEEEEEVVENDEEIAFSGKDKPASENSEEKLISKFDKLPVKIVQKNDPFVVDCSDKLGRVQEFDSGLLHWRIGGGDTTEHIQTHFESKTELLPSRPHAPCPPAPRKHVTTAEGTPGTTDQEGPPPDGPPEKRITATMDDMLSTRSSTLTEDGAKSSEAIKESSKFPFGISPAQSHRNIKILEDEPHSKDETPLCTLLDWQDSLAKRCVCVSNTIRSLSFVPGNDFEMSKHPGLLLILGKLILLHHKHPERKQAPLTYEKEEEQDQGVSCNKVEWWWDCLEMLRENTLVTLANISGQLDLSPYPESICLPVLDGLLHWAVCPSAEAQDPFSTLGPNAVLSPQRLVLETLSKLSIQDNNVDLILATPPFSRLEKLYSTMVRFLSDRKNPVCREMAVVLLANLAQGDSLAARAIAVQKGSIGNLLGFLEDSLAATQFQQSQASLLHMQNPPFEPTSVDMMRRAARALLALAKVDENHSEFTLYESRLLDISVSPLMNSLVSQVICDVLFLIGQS
# UniProt O00425, whole entry, looked up: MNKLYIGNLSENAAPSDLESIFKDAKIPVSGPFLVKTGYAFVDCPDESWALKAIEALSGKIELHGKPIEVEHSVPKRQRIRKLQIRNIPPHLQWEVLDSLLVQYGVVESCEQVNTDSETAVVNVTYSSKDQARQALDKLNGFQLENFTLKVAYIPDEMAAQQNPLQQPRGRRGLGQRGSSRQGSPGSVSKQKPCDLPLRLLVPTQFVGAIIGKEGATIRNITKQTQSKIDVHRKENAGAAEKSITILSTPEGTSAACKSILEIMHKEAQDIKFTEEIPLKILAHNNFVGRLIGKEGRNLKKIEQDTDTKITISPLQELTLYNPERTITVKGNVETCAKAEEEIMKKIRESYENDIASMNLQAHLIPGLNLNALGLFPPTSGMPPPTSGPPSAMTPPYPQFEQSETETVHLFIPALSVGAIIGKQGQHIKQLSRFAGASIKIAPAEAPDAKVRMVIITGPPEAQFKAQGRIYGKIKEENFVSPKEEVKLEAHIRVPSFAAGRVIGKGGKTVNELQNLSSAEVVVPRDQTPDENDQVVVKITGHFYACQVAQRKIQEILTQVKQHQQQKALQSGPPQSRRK
# UniProt O00244: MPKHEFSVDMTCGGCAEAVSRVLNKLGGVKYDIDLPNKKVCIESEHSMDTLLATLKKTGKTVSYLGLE
# UniProt O00743: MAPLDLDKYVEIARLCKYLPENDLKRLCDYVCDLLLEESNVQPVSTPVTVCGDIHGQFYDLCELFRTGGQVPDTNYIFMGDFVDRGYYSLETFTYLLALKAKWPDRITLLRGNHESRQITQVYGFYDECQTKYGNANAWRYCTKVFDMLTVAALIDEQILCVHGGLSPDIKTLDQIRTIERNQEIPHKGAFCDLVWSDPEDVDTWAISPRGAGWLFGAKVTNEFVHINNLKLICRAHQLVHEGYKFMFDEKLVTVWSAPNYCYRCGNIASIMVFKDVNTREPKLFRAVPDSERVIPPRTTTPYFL
# UniProt O43175: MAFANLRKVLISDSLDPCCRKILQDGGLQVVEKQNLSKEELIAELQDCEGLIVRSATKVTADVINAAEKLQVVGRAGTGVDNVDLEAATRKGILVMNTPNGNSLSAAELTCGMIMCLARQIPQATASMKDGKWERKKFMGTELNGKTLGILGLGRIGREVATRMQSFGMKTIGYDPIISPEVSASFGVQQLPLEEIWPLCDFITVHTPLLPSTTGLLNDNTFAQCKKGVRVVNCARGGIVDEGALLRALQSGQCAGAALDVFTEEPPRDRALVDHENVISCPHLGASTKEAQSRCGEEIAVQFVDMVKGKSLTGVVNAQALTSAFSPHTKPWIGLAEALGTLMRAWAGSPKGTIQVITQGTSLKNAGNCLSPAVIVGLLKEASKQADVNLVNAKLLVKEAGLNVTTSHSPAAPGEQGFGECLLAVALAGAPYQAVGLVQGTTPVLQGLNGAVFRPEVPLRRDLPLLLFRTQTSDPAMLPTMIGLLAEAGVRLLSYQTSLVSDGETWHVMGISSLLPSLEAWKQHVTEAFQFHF
# UniProt O14802: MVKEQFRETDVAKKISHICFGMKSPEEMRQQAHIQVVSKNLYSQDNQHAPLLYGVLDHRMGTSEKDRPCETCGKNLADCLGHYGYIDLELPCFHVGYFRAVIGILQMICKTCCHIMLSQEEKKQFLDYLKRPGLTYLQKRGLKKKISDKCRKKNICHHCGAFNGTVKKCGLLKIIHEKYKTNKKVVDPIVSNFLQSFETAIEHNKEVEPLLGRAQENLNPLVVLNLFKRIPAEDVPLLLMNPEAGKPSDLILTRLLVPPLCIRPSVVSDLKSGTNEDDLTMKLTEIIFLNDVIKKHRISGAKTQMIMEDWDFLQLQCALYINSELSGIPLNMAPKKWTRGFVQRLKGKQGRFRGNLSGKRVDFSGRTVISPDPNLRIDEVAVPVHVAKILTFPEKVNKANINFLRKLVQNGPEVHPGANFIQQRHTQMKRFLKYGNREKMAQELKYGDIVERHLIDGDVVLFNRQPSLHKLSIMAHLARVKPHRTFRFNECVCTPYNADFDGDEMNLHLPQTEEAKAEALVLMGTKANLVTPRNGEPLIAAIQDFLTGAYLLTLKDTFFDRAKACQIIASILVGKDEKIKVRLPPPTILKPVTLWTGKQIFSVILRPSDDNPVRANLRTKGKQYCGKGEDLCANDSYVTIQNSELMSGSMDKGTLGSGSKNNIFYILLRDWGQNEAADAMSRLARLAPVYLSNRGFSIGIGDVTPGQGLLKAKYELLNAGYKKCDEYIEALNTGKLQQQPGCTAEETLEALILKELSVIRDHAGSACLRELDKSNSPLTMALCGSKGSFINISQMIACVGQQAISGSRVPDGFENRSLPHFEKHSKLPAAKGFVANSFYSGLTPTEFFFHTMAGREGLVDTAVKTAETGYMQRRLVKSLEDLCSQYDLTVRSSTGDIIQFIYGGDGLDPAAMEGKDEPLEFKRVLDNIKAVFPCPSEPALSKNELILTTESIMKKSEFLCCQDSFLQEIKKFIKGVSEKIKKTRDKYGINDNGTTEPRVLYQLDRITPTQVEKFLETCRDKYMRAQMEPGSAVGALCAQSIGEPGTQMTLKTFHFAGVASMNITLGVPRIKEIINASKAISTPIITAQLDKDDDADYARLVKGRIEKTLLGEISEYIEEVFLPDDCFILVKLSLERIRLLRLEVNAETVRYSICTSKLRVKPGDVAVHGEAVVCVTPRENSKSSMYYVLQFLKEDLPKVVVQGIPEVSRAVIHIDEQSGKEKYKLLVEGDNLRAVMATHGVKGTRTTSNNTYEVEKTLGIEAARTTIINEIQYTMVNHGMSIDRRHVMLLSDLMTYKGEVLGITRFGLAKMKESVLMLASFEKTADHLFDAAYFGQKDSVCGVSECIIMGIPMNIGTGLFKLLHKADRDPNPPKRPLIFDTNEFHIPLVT
# UniProt O15260: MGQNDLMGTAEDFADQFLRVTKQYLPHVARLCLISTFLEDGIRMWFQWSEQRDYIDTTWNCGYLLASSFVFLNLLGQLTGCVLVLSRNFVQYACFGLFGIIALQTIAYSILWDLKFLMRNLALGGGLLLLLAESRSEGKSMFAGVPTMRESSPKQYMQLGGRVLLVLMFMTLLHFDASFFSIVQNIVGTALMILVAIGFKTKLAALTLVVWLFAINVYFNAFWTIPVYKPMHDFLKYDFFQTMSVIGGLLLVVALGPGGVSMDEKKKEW
# UniProt O14662: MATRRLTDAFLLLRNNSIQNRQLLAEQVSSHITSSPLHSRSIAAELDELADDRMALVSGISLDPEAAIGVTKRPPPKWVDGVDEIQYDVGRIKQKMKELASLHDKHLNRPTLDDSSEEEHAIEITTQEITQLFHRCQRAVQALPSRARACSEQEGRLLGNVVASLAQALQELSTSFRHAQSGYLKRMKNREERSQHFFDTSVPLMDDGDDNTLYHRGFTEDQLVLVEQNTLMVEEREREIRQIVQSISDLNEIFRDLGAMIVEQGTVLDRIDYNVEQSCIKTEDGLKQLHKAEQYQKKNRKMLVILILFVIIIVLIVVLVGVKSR
# This is a selection; strong and weak results do not stand in their true shares.
# Compound: COC(=O)C#Cc1ccccc1 [methyl 3-phenylpropiolate]
# Test: log2 ratio of iodoacetamide-alkyne labeling of the cysteine site, DMSO over compound (competition); higher = stronger covalent engagement of the cysteine by the compound, active = 1 or more
# Conditions: 500 µM; treatment time 1 h; system: HEK293T cell lysate
# Procedure, shortened: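 After 1 h at ambient temperature with vehicle or electrophile (500 µM), HEK293T lysate (2 mg/mL) was labelled for 1 h with iodoacetamide alkyne and clicked to sCIP-TMT reagents. Pooled samples were trypsin-digested overnight at 37 °C, streptavidin-enriched, acid-eluted and analysed by Orbitrap Eclipse LC-MS/MS with FAIMS, then quantified in FragPipe over three replicates with duplicate channels. A cysteine's log2 competition ratio is its mean control-channel over mean compound-channel reporter intensity. Cysteines quantified in only one replicate were not included.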
row,Target,log2 ratio of iodoacetamide-alkyne labeling
1,HAT1 C120 (UniProt O14929),inactive: 0.32
2,APAF1 C258 (UniProt O14727),inactive: 0.0065
3,NVL C192 (UniProt O15381),inactive: 0.306
4,EIF3CL C79 (UniProt B5ME19),inactive: 0.24
5,PRMT5 C22 (UniProt O14744),inactive: 0.271
6,GAK C190 (UniProt O14976),inactive: 0.637
7,UniProt O43159_C451,inactive: 0.417
8,RNMT C73 (UniProt O43148),inactive: 0.607
9,AGPS C214 (UniProt O00116),inactive: 0.0828
10,NVL C448 (UniProt O15381),inactive: 0.0738
11,CLIC1 C59 (UniProt O00299),inactive: 0.138
12,NDC80 C449 (UniProt O14777),inactive: 0.0971
13,SIVA1 C62 (UniProt O15304),inactive: 0.0239
14,IRS4 C545 (UniProt O14654),inactive: 0.932
15,PEX7 C5 (UniProt O00628),inactive: 0.453
16,KIF2A C596 (UniProt O00139),inactive: -0.0646
17,PFAS C318 (UniProt O15067),inactive: 0.0015
18,DDX3X C341 (UniProt O00571),inactive: 0.091
19,ARID1A C336 (UniProt O14497),inactive: 0.481
20,SPTBN2 C2070 (UniProt O15020),inactive: 0.506

row,Target,log2 ratio of iodoacetamide-alkyne labeling
1,ARID1A C1827 (UniProt O14497),inactive: 0.311
2,ARHGEF11 C402 (UniProt O15085),inactive: 0.458
3,KDM6A C384 (UniProt O15550),inactive: 0.257
4,UniProt O00148_C62,inactive: 0.591
5,IGF2BP3 C194 (UniProt O00425),inactive: 0.154
6,UniProt O00487_C299,inactive: -0.258
7,TRAFD1 C482 (UniProt O14545),active: 1.55
8,ATOX1 C41 (UniProt O00244),inactive: 0.0939
9,UniProt O43159_C320,inactive: 0.138
10,DNM1L C431 (UniProt O00429),inactive: 0.753
11,PPP6C C192 (UniProt O00743),inactive: 0.347
12,UniProt A8MW92_C472,inactive: 0.361
13,ARPC2 C120 (UniProt O15144),inactive: -0.0732
14,PHGDH C18 (UniProt O43175),inactive: 0.0299
15,SETD1A C243 (UniProt O15047),inactive: 0.308
16,POLRMT C650 (UniProt O00411),inactive: 0.197
17,IPO5 C733 (UniProt O00410),inactive: 0.0253
18,PDLIM1 C73 (UniProt O00151),inactive: -0.0138
19,POLR3A C960 (UniProt O14802),inactive: 0.493
20,XPO1 C1070 (UniProt O14980),inactive: 0.0562

# 2 entries from above in a different format:
row | Target | log2 ratio of iodoacetamide-alkyne labeling
7 | TRAFD1 C482 (UniProt O14545) | active: 1.55
8 | ATOX1 C41 (UniProt O00244) | inactive: 0.0939

# Later entries:

row,Target,log2 ratio of iodoacetamide-alkyne labeling
1,CD3EAP C55 (UniProt O15446),inactive: 0.552
2,ARID1A C1874 (UniProt O14497),inactive: 0.298
3,INPPL1 C1187 (UniProt O15357),inactive: 0.564
4,PHGDH C111 (UniProt O43175),inactive: 0.00502
5,CD3EAP C150 (UniProt O15446),inactive: 0.434
6,SNAP23 C112 (UniProt O00161),inactive: 0.146
7,SURF4 C32 (UniProt O15260),inactive: 0.0105
8,POLRMT C535 (UniProt O00411),inactive: 0.0235
9,MRPS12 C93 (UniProt O15235),inactive: 0.317
10,PFAS C66 (UniProt O15067),inactive: 0.518
11,PHGDH C254 (UniProt O43175),inactive: 0.208
12,UniProt O00148_C223,inactive: 0.0985
13,ARHGEF11 C1166 (UniProt O15085),inactive: 0.618
14,SPTBN2 C1140 (UniProt O15020),inactive: 0.212
15,PDLIM1 C45 (UniProt O00151),inactive: 0.0932
16,IRS4 C314 (UniProt O14654),inactive: 0.142
17,HAT1 C27 (UniProt O14929),inactive: 0.201
18,STX16 C150 (UniProt O14662),inactive: 0.0256
19,PRPF4 C237 (UniProt O43172),active: 1.42
